Structures are written as SMILES. This is one part of the list. Rule as the data show it: active = 150% or more and inactive = the rest. Repeats are few or missing, and single values can be far off.

This assay has as its system Staphylococcus aureus JE2-lux inside RAW 264.7 macrophages. The assay can be described thus: intracellular bacterial bioluminescence relative to DMSO vehicle; higher = higher intracellular bacterial metabolic activity. Conditions: 10 µM; treatment time 4 h; gentamicin 50 µg/ml.
Turning to `CCn1c(=O)c2sccc2n2c(CCCC(=O)NCCc3ccc(S(N)(=O)=O)cc3)nnc12`, the intracellular bacterial bioluminescence is inactive: 86.8%.
In the case of `O=C(CSc1nc(=O)n2ccccc2n1)Nc1ccccc1C(F)(F)F` it was inactive: 103%.
In the case of `O=C1/C(=C/c2ccc(F)cc2)Oc2c1ccc(O)c2CN1CCCC1` it was inactive: 81.6%; in that of `O=C(CSc1ncnc2c1oc1ccccc12)NCC1CCCO1` (stereo not drawn), inactive: 92.4%; in that of `Cc1oc(-c2ccno2)cc1S(=O)(=O)NCCC1=CCCCC1`, inactive: 102%.
The result for `COc1ccccc1N1CCN(C(=O)CSc2nnc3ccc(C(=O)Nc4ccc(C)cc4)cn23)CC1` reads inactive: 78%; that for `Cc1cc(Cl)ccc1OCc1nc(-c2ccc3c(c2)[nH]c(=O)n3C2CCCC2)no1`, inactive: 109%; that for `O=C1NC(=S)/C(=C\c2ccc(-c3cc(Cl)ccc3Cl)o2)S1`, inactive: 90.1%.
As to `Cc1ccc(S(=O)(=O)CCC(=O)N(CCN(C)C)c2nc3cc(C)cc(C)c3s2)cc1`, the intracellular bacterial bioluminescence was inactive: 146%.
In the case of `O=C(Cn1cnc2c(cnn2-c2ccc(F)cc2)c1=O)NCC1CCCO1` (stereo not drawn) it was inactive: 115%; in that of `COc1ccc(CCNC(=O)c2c(O)nc3scc(C)n3c2=O)cc1`, inactive: 103%.
Consider `O=C(NCC1CCN(Cc2ccccc2F)CC1)C1CCCN(c2ccc(N3CCOCC3)nn2)C1` (stereo not drawn), for which the intracellular bacterial bioluminescence was inactive: 85.1%.
In the case of `Cc1cc2ncc(N3CCN(C4CCCCC4)CC3)nc2cc1C` it was inactive: 81%; in that of `COc1ccc(-c2cnc(NC(=O)c3ccc4nc(C)[nH]c4c3)n2C)cc1`, inactive: 79.4%.
Take `O=C(Nc1cccc2ccccc12)N1CCCC(O)C1` (stereo not drawn): the intracellular bacterial bioluminescence was inactive: 112%.
The result for `CC1=C(C(=O)Nc2ccc(C)c(Cl)c2)C(c2ccc(C)cc2)NC(=O)N1` (stereo not drawn) reads inactive: 101%; that for `COc1nn(C)cc1C(=O)Nc1cccc(C(F)(F)F)c1`, inactive: 111%; that for `COc1ccccc1NCc1nc2[nH]c(C)cc(=O)n2n1`, active: 193%.
For `COCCN(CCOC)C(=O)CN1C(=O)c2ccccc2S1(=O)=O`, the intracellular bacterial bioluminescence is inactive: 97.4%.
The result for `O=C1CN(C(=O)CSc2nnc(-c3ccccc3)c(-c3ccccc3)n2)c2ccccc2N1` reads inactive: 67.7%.
In the case of `O=C(NCCc1cn2ccccc2n1)c1ccc([N+](=O)[O-])cc1` it was inactive: 68%.
Consider `Fc1cc(F)c2nc(N3CCc4ccccc4C3)sc2c1`, for which the intracellular bacterial bioluminescence is inactive: 67.9%.
Consider `Cc1ccc(-c2cc(N)c(=O)n(CC(=O)NCC3CCCO3)n2)o1` (stereo not drawn), for which the intracellular bacterial bioluminescence was inactive: 101%.
In the case of `COC(=O)c1c(NC(=O)/C=C/c2ccccc2Cl)sc2c1CC(C)(C)NC2(C)C` it was inactive: 104%; in that of `Cn1c(=O)c2c(nc3n2CC(C(C)(C)C)=NN3Cc2ccccc2Cl)n(C)c1=O`, active: 151%.
In the case of `O=S(=O)(Nc1cccc(-c2ccc(N3CCOCC3)nn2)c1)c1ccc(Cl)c(Cl)c1` it was inactive: 134%; in that of `CCCCOc1ccc(C(=O)NCCc2cc3ccc(C)c(C)c3[nH]c2=O)cc1`, inactive: 85.4%; in that of `CCOC(=O)C1CCN(c2nc(C)nc3c2c(C)c(C)n3-c2ccccc2)CC1`, inactive: 70.8%.
In the case of `COc1ccc(N2CCN(C(=O)CSc3nnc4c(n3)[nH]c3ccccc34)CC2)cc1` it was inactive: 105%; in that of `O=C1NC(=O)C2C1C(c1ccc(Cl)cc1)NN2Cc1ccccc1` (stereo not drawn), inactive: 87.6%; in that of `Cc1cc(C)nc(N2CCC(C(=O)NNC(=O)c3ccccc3)CC2)n1`, inactive: 98.1%.
As to `Cc1cc(=O)n2nc(CN(C(=O)c3ccccc3F)c3ccc(Cl)cc3)nc2[nH]1`, the intracellular bacterial bioluminescence is inactive: 110%.
The result for `N#C/C(=C/c1ccco1)c1nc(-c2cccc([N+](=O)[O-])c2)cs1` reads inactive: 111%.
In the case of `Cc1cc(NS(=O)(=O)c2ccc(NC(=O)c3cc4c(ccc5ccccc54)oc3=O)cc2)no1` it was inactive: 98.1%.
The result for `CCOCCCn1c(=N)c(C(=O)NC)cc2c(=O)n3ccccc3nc21` reads inactive: 99.2%; that for `CC(C)CNC(=O)c1cncc(NS(=O)(=O)c2ccc3c(c2)OCCO3)c1`, inactive: 113%; that for `O=c1[nH]c2ccc(S(=O)(=O)Nc3ccccc3O)cc2[nH]1`, inactive: 105%.
For the compound `Cc1c(C(=O)O)sc2nc(SCC(=O)O)[nH]c(=O)c12`, the intracellular bacterial bioluminescence is inactive: 112%.
The result for `Cc1c[nH]c(=O)nc1SCC(=O)NC1CCCCC1` reads inactive: 124%.
Regarding `Cc1ccc(CN2CCc3nc(SCC(=O)Nc4cccc(C)c4C)[nH]c(=O)c3C2)cc1`, the intracellular bacterial bioluminescence is inactive: 44.9%.
The result for `CCC(=O)Nc1cccnc1-c1ccc(C(=O)NCc2cccc(OC)c2)cc1` reads inactive: 102%; that for `CC(=O)Nc1cccc(Oc2nnc(Oc3cccc(NC(C)=O)c3)c3ccccc23)c1`, inactive: 98.7%.
On to `CN(C)c1nc2c(c(=O)[nH]c(=O)n2C)n1CCSc1nc2ccccc2o1`, for which the intracellular bacterial bioluminescence is inactive: 99.7%.
The result for `O=C(Nc1cccc(N2CCCC2)c1)c1cc(-c2ccccn2)n[nH]1` reads inactive: 72.5%; that for `CCn1c2c(c(=O)[nH]c1=O)C(c1ccc(F)cc1)C1=C(CC(C)(C)CC1=O)N2` (stereo not drawn), inactive: 110%; that for `COC(=O)c1ccc(COc2coc(CN3c4ccccc4CC3C)cc2=O)cc1` (stereo not drawn), inactive: 38.8%.
Take `CCOC(=O)c1c(NC(=O)c2cc(Cl)ccc2[N+](=O)[O-])sc(C)c1C`: the intracellular bacterial bioluminescence is inactive: 96.1%.
In the case of `CCOc1ccc(C(=O)C2CCN(CC(=O)Nc3nccs3)CC2)cc1` it was inactive: 120%; in that of `Cc1sc2ncnc(SCC(=O)NC(Cc3ccccc3)C(=O)O)c2c1C` (stereo not drawn), inactive: 94.7%; in that of `CCNS(=O)(=O)c1cc(-c2cc(C(=O)N3CCCC(C)C3)n[nH]2)ccc1OC` (stereo not drawn), inactive: 98.8%.
The result for `COc1ccc(-c2nsc(SCC(=O)Nc3ccc(OC)c(OC)c3)n2)cc1` reads inactive: 80.4%; that for `CCOC(=O)c1c(NC(=O)CC2Nc3cc(C)c(C)cc3NC2=O)sc(C)c1C` (stereo not drawn), inactive: 108%.
The result for `CCOC(=O)c1ccc(NC(=O)C2CC3CCCN3C23C(=O)N(C)c2ccccc23)cc1` (stereo not drawn) reads inactive: 114%; that for `Cc1cc2c(=O)n(C)c(SCC(=O)c3ccccc3)nc2s1`, inactive: 116%; that for `Cc1ccc(S(=O)(=O)N2CCCC(C(N)=O)C2)cc1` (stereo not drawn), inactive: 107%.
For `Cc1cc(C)n2nc(C(=O)NCCCc3nc4ccccc4[nH]3)cc2n1`, the intracellular bacterial bioluminescence was inactive: 114%.
The result for `CC(C)CN1N=C(c2ccccc2)Cn2c1nc1c2c(=O)n(CC(C)C)c(=O)n1C` reads inactive: 97.4%; that for `CCc1ccc(-c2noc3c(=O)n(CCC(=O)N4CCCc5ccccc54)cnc23)cc1`, inactive: 50%.

Source of the values: the supplement of paper PMC12578635.
